Results are given in words; binding and its absence hold for the method and conditions named. In cells and extracts the contact can be indirect. Some entries that bind do so weakly or less than the wild type.

By UniProt entry, the sequences of proteins in these tests, tags left out. Residues count along the entry.
UniProt P35869, residues 11-848: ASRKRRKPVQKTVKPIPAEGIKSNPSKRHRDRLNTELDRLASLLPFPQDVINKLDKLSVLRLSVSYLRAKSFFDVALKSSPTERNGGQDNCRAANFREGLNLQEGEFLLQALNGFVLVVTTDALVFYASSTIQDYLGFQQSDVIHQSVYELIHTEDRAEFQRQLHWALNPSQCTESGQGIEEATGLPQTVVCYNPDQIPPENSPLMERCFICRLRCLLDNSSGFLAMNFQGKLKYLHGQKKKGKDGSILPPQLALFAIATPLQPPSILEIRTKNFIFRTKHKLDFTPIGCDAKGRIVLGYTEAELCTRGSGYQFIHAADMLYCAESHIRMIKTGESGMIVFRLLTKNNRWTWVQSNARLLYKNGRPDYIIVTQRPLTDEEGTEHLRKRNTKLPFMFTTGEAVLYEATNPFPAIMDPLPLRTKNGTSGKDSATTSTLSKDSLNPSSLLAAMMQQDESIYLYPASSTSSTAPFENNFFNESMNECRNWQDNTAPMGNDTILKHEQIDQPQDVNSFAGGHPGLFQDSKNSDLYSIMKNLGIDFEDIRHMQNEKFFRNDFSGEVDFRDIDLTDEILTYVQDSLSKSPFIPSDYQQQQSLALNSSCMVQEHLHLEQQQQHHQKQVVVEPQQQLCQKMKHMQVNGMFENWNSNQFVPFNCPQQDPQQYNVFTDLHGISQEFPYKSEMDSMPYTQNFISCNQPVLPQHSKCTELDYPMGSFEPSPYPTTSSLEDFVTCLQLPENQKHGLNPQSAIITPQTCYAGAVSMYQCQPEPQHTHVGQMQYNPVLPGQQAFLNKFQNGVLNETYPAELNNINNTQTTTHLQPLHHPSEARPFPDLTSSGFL
UniProt O60563: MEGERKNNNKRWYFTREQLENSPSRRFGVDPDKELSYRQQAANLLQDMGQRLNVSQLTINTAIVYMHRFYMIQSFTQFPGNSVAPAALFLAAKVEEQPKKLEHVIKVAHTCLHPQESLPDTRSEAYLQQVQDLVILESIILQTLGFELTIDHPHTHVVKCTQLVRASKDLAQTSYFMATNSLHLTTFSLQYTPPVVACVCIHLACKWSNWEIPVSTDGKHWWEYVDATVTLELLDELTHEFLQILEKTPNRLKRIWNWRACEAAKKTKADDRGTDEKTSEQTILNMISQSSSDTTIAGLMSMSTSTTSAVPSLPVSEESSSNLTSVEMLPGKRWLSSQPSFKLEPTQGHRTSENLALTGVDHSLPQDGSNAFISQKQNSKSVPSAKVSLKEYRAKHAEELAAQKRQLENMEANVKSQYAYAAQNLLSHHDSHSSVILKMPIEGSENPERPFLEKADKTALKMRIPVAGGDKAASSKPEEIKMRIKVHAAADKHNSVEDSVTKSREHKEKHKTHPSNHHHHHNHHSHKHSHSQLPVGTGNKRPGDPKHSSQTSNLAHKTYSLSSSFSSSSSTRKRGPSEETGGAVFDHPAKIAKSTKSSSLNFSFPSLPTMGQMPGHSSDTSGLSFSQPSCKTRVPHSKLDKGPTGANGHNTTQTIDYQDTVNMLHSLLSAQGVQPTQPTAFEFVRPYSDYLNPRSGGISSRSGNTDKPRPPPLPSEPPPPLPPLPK
UniProt P27540: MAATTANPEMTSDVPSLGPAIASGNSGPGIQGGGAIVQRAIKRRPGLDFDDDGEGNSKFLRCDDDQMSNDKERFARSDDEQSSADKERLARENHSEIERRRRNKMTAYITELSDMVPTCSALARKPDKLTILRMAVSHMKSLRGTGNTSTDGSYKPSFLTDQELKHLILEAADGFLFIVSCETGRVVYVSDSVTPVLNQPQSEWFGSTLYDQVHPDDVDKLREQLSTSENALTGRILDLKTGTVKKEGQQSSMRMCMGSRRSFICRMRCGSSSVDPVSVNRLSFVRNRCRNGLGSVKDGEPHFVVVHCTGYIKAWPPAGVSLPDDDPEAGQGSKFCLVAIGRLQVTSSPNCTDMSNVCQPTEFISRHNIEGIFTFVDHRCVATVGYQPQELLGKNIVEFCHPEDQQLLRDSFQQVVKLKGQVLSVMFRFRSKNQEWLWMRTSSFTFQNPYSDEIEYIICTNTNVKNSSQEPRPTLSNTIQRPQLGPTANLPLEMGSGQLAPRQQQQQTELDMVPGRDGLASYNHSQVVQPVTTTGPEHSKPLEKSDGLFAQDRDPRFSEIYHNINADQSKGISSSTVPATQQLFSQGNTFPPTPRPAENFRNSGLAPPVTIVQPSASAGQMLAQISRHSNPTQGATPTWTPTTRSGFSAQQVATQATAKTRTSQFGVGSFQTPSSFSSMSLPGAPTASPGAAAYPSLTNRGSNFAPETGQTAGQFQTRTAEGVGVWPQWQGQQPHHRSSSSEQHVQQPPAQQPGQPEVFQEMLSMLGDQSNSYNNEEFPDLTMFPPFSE

Test [1] has as its target aryl hydrocarbon receptor (AHR) (human (endogenous in HEK293T)) (UniProt P35869). Kind of test: co-IP.
For test [2], the target named is cyclin T1 (CycT1), component of the P-TEFb complex (human (endogenous in HEK293T)) (UniProt O60563). Put plainly: co-IP.

As to “AHR nuclear translocator (ARNT) (from UniProt P27540 1-789)”, the binding result in test [1] was “binds”.
For the substance “aryl hydrocarbon receptor (AHR) (from UniProt P35869 11-848)”, the binding entry in test [2] was “binds”.

For the origin of these results see PMC6918076.
